Data on three molecules can be found in US20210355180A1.

Residue numbers refer to the chain shown, from its start. These are yes or no findings as the source states them, for the method shown. Some binding calls cover weakened binding; strength is not graded here.

Assay [1] has as its target C-terminally biotinylated Aβ1-40 peptide (human). Kind of assay: flow cytometry, S. carnosus display, 1 nM biotinylated Aβ1-40. For orientation: In flow cytometry, cells or beads pass a laser one at a time.
Assay [2] shares this target. Kind of assay: flow cytometry, on-cell off-rate ranking with unlabeled Aβ1-40.

B1: (ZAβ3A12)2 displayed on S. carnosus (designed binder)
chain: AGGEIVYLPNLNPDQLCAFIHSLHDDPSQSANLLAEAKKLNDAQAPKSSSGSSSGRASAGGEIVYLPNLNPDQLCAFIHSLHDDPSQSANLLAEAKKLNDAQAPKKLLDALAKAKADALKEFNKYGVSDYYKNLINNAKTVEGVKDLQAQVVESAKKARISEATDGLSDFLKSQTPAEDTVKSIELAEAKVLANRELDKYGVSDYHKNLINNAKTVEGVKDLQAQVVESAKKARISEATDGLSDFLKSQTPAEDTVKSIELAEAKVLANRELDKYGVSDYYKNLINNAKTVEGVKALIDEILAALP
With B1, the binding result in assay [1] and in assay [2] was “binds” each time.

B2: ABPP078 displayed on S. carnosus (designed binder)
chain: AGRERVYLPNLNAHQLCAFINSLEDDPSQSANLLAEAKKLNDAQAPASSSSGSSSSGRASAGGEIVYLPNLNAHQLCAFIQSLEDDPSQSANLLAEAKKLNDAQAPKKLLDALAKAKADALKEFNKYGVSDYYKNLINNAKTVEGVKDLQAQVVESAKKARISEATDGLSDFLKSQTPAEDTVKSIELAEAKVLANRELDKYGVSDYHKNLINNAKTVEGVKDLQAQVVESAKKARISEATDGLSDFLKSQTPAEDTVKSIELAEAKVLANRELDKYGVSDYYKNLINNAKTVEGVKALIDEILAALP
As to B2, the binding result in assay [1] and in assay [2] was “binds” each time.

B3: ABPP096 displayed on S. carnosus (designed binder)
chain: B2 chain with R3G, L8F, N21R, S30Q, G63R, I65R, H74D, S90R
For B3, the binding result in assay [1] and in assay [2] was “binds” in each case.
